The chains behind the UniProt entries cited, without tags or fusion partners.
UniProt P49356, whole entry: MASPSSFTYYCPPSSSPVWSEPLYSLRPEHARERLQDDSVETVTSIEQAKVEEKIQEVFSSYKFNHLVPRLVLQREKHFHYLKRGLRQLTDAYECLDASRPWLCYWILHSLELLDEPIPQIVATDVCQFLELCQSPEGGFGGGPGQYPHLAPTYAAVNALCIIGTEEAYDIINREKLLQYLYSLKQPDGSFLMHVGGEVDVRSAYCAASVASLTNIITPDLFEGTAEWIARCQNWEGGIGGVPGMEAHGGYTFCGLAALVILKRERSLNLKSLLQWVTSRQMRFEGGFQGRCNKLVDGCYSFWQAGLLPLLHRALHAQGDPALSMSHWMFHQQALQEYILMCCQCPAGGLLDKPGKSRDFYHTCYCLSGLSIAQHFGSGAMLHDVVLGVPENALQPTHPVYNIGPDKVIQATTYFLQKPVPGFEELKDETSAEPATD
UniProt P53610, whole entry: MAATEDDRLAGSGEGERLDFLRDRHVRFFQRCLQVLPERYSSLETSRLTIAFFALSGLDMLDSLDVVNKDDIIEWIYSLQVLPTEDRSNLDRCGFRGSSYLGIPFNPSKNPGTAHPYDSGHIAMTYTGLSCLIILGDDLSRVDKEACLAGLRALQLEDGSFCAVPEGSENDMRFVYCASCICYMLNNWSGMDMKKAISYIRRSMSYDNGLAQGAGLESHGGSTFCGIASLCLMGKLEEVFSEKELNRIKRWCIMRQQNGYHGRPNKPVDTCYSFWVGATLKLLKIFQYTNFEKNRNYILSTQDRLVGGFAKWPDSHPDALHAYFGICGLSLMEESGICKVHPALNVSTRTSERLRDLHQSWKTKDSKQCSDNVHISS

According to patent EP0989983B1 (SCHERING CORPORATION, priority 1997, dated 1998):

Columns and labels:
Human tumor cells = test: Soft Agar Assay (anchorage-independent growth, colony count after MTT staining); settings: read-out: Soft Agar IC50; colony outgrowth 10-16 days at 37°C in 0.3% agarose
Method: Anchorage-independent growth is a characteristic of tumorigenic cell lines. Human tumor cells are suspended in growth medium containing 0.3% agarose and an indicated concentration of a farnesyl transferase inhibitor. The solution is overlayed onto growth medium solidified with 0.6% agarose containing the same concentration of farnesyl transferase inhibitor as the top layer. After the top layer is solidified, plates are incubated for 10-16 days at 37°C under 5% CO2 to allow colony outgrowth. After incubation, the colonies are stained by overlaying the agar with a solution of MTT (3-[4,5-dimethylthiazol-2-yl]-2,5-diphenyltetrazolium bromide, Thiazolyl blue) (1 mg/mL in PBS). Colonies can be counted and the IC50's can be determined.

COS Cell = COS Cell IC50 (Cell-Based Assay, procedure of WO 95/10516); settings: read-out: COS Cell IC50, several values in a cell are repeat determinations
[1] = target: farnesyl protein transferase (Homo sapiens, UniProt P49354+P49356); test: FPT IC50, inhibition of farnesyl protein transferase, in vitro enzyme assay (procedure of WO 95/10516); settings: read-out: FPT C50, several values in a cell are repeat determinations
[2] = target: geranylgeranyl protein transferase (Rattus norvegicus, UniProt P53610+Q04631); test: GGPT IC50, inhibition of geranylgeranyl protein transferase, in vitro enzyme assay (procedure of WO 95/10516); settings: read-out: GGPTase IC50
Method: FPT IC50 (inhibition of farnesyl protein transferase, in vitro enzyme assay). and COS Cell IC50 (Cell-Based Assay) were determined following the assay procedures described in WO 95/10516, published April 20, 1995. GGPT IC50 (inhibition of geranylgeranyl protein transferase, in vitro enzyme assay), Cell Mat Assay, and anti-tumor activity (in vivo anti-tumor studies) could be determined by the assay procedures described in WO 95/10516. The disclosure of WO 95/10516 is incorporated herein by reference thereto.

| Structure (SMILES) | IC50 (Human tumor cells) | IC50 (COS Cell) | IC50 [1] | IC50 [2] |
| --- | --- | --- | --- | --- |
| O=C(NCCc1c[nH]cn1)C1CN(C2c3ccc(Cl)cc3CCc3cc(Br)cnc32)CCN1C(=O)NC1CCCCC1 (stereo not drawn) [Compound 227] | 52 nM and 5.4 nM | 16 nM and 4 nM |  |  |
| CCCCC(=O)N1CCN(C2c3ncc(Br)cc3CCc3cc(Cl)cc(Br)c32)CC1C(=O)NCc1cccnc1 (single isomer, unassigned) [256] |  |  | 6.7 nM, 7.2 nM, 2.9 nM |  |
| O=C(NCc1cccnc1)C1CN(C2c3ccc(Cl)cc3CCc3cc(Br)cnc32)CCN1C(=O)CCC1CCCCC1 (stereo not drawn) |  | 10 nM to 100 nM and 25 nM to 50 nM | 22, 12, 28, 16 nM |  |
| CCCCC(=O)N1CCN(C2c3ccc(Cl)cc3CCc3cc(Br)cnc32)CC1C(=O)Nc1cccnc1 (stereo not drawn) |  | 50 nM to 100 nM and 127 nM |  |  |
| COCCC(=O)N1CCN(C2c3ccc(Cl)cc3CCc3cc(Br)cnc32)CC1C(=O)NCc1cccnc1 (stereo not drawn) |  |  | 19, 22, 23, 11, 24 nM | 13 µM and 79 µM |
| CC(C)CC(=O)N1CCN(C2c3ccc(Cl)cc3CCc3cc(Br)cnc32)CC1C(=O)NCc1cccnc1 (stereo not drawn) | 50 nM to 100 nM and 174 nM | 10 nM to 100 nM and 50 nM |  |  |
| CN(Cc1cccnc1)C(=O)C1CN(C2c3ccc(Cl)cc3CCc3cc(Br)cnc32)CCN1C(=O)CCC1CCCCC1 (stereo not drawn) |  | 1 µM and 100 nM |  |  |
| O=C(NCc1cccnc1)C1CN(C2c3ccc(Cl)cc3CCc3cc(Br)cnc32)CCN1C(=O)NC1CCCC1 (stereo not drawn) |  |  | 23 nM, 11 nM, 7.6 nM |  |

The source holds more than one record for some entries. The other results are left out here. An entry can have further records. The records of an entry differ, and nothing given here explains why; they may come from other doses, times, organisms or constructs than stated.
